PMC3125213
Results are given in words; binding and its absence hold for the method and conditions named. In cells and extracts the contact can be indirect. Here binding means that the protein was enriched with, or labelled near, the bait; the list need not be complete. Where a sequence is shown, tags or fusion partners need not be part of it.

T1: TAR-RNA binding protein 2 (human) (UniProt Q15633)
T1 sequence: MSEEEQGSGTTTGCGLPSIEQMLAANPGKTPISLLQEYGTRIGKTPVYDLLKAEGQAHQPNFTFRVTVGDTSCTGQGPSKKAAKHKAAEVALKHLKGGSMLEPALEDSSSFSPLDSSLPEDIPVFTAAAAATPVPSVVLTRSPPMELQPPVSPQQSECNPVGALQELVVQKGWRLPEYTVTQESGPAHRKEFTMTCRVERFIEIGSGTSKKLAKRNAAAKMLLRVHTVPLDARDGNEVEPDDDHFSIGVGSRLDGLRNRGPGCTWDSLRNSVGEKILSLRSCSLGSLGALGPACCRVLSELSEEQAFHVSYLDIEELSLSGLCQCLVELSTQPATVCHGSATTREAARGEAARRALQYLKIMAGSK

B1: XRN2 (protein, UniProt Q9H0D6 1-950)
chain: MGVPAFFRWLSRKYPSIIVNCVEEKPKECNGVKIPVDASKPNPNDVEFDNLYLDMNGIIHPCTHPEDKPAPKNEDEMMVAIFEYIDRLFSIVRPRRLLYMAIDGVAPRAKMNQQRSRRFRASKEGMEAAVEKQRVREEILAKGGFLPPEEIKERFDSNCITPGTEFMDNLAKCLRYYIADRLNNDPGWKNLTVILSDASAPGEGEHKIMDYIRRQRAQPNHDPNTHHCLCGADADLIMLGLATHEPNFTIIREEFKPNKPKPCGLCNQFGHEVKDCEGLPREKKGKHDELADSLPCAEGEFIFLRLNVLREYLERELTMASLPFTFDVERSIDDWVFMCFFVGNDFLPHLPSLEIRENAIDRLVNIYKNVVHKTGGYLTESGYVNLQRVQMIMLAVGEVEDSIFKKRKDDEDSFRRRQKEKRKRMKRDQPAFTPSGILTPHALGSRNSPGSQVASNPRQAAYEMRMQNNSSPSISPNTSFTSDGSPSPLGGIKRKAEDSDSEPEPEDNVRLWEAGWKQRYYKNKFDVDAADEKFRRKVVQSYVEGLCWVLRYYYQGCASWKWYYPFHYAPFASDFEGIADMPSDFEKGTKPFKPLEQLMGVFPAASGNFLPPSWRKLMSDPDSSIIDFYPEDFAIDLNGKKYAWQGVALLPFVDERRLRAALEEVYPDLTPEETRRNSLGGDVLFVGKHHPLHDFILELYQTGSTEPVEVPPELCHGIQGKFSLDEEAILPDQIVCSPVPMLRDLTQNTVVSINFKDPQFAEDYIFKAVMLPGARKPAAVLKPSDWEKSSNGRQWKPQLGFNRDRRPVHLDQAAFRTLGHVMPRGSGTGIYSNAAPPPVTYQGNLYRPLLRGQAQIPKLMSNMRPQDSWRGPPPLFQQQRFDRGVGAEPLLPWNRMLQTQNAAFQPNQYQMLAGPGGYPPRRDDRGGRQGYPREGRKYPLPPPSGRYNWN
B2: DEK (protein, UniProt P35659 1-375)
chain: MSASAPAAEGEGTPTQPASEKEPEMPGPREESEEEEDEDDEEEEEEEKEKSLIVEGKREKKKVERLTMQVSSLQREPFTIAQGKGQKLCEIERIHFFLSKKKTDELRNLHKLLYNRPGTVSSLKKNVGQFSGFPFEKGSVQYKKKEEMLKKFRNAMLKSICEVLDLERSGVNSELVKRILNFLMHPKPSGKPLPKSKKTCSKGSKKERNSSGMARKAKRTKCPEILSDESSSDEDEKKNKEESSDDEDKESEEEPPKKTAKREKPKQKATSKSKKSVKSANVKKADSSTTKKNQNSSKKESESEDSSDDEPLIKKLKKPPTDEELKETIKKLLASANLEEVTMKQICKKVYENYPTYDLTERKDFIKTTVKELIS
B3: GTF3C4 (protein, UniProt Q9UKN8 1-822)
chain: MNTADQARVGPADDGPAPSGEEEGEGGGEAGGKEPAADAAPGPSAAFRLMVTRREPAVKLQYAVSGLEPLAWSEDHRVSVSTARSIAVLELICDVHNPGQDLVIHRTSVPAPLNSCLLKVGSKTEVAECKEKFAASKDPTVSQTFMLDRVFNPEGKALPPMRGFKYTSWSPMGCDANGRCLLAALTMDNRLTIQANLNRLQWVQLVDLTEIYGERLYETSYRLSKNEAPEGNLGDFAEFQRRHSMQTPVRMEWSGICTTQQVKHNNECRDVGSVLLAVLFENGNIAVWQFQLPFVGKESISSCNTIESGITSPSVLFWWEYEHNNRKMSGLIVGSAFGPIKILPVNLKAVKGYFTLRQPVILWKEMDQLPVHSIKCVPLYHPYQKCSCSLVVAARGSYVFWCLLLISKAGLNVHNSHVTGLHSLPIVSMTADKQNGTVYTCSSDGKVRQLIPIFTDVALKFEHQLIKLSDVFGSVRTHGIAVSPCGAYLAIITTEGMINGLHPVNKNYQVQFVTLKTFEEAAAQLLESSVQNLFKQVDLIDLVRWKILKDKHIPQFLQEALEKKIESSGVTYFWRFKLFLLRILYQSMQKTPSEALWKPTHEDSKILLVDSPGMGNADDEQQEEGTSSKQVVKQGLQERSKEGDVEEPTDDSLPTTGDAGGREPMEEKLLEIQGKIEAVEMHLTREHMKRVLGEVYLHTWITENTSIPTRGLCNFLMSDEEYDDRTARVLIGHISKKMNKQTFPEHCSLCKEILPFTDRKQAVCSNGHIWLRCFLTYQSCQSLIYRRCLLHDSIARHPAPEDPDWIKRLLQSPCPFCDSPVF
B4: IGHMBP2 (protein, UniProt P38935 1-993)
chain: MASAAVESFVTKQLDLLELERDAEVEERRSWQENISLKELQSRGVCLLKLQVSSQRTGLYGRLLVTFEPRRYGSAAALPSNSFTSGDIVGLYDAANEGSQLATGILTRVTQKSVTVAFDESHDFQLSLDRENSYRLLKLANDVTYRRLKKALIALKKYHSGPASSLIEVLFGRSAPSPASEIHPLTFFNTCLDTSQKEAVLFALSQKELAIIHGPPGTGKTTTVVEIILQAVKQGLKVLCCAPSNIAVDNLVERLALCKQRILRLGHPARLLESIQQHSLDAVLARSDSAQIVADIRKDIDQVFVKNKKTQDKREKSNFRNEIKLLRKELKEREEAAMLESLTSANVVLATNTGASADGPLKLLPESYFDVVVIDECAQALEASCWIPLLKARKCILAGDHKQLPPTTVSHKAALAGLSLSLMERLAEEYGARVVRTLTVQYRMHQAIMRWASDTMYLGQLTAHSSVARHLLRDLPGVAATEETGVPLLLVDTAGCGLFELEEEDEQSKGNPGEVRLVSLHIQALVDAGVPARDIAVVSPYNLQVDLLRQSLVHRHPELEIKSVDGFQGREKEAVILSFVRSNRKGEVGFLAEDRRINVAVTRARRHVAVICDSRTVNNHAFLKTLVEYFTQHGEVRTAFEYLDDIVPENYSHENSQGSSHAATKPQGPATSTRTGSQRQEGGQEAAAPARQGRKKPAGKSLASEAPSQPSLNGGSPEGVESQDGVDHFRAMIVEFMASKKMQLEFPPSLNSHDRLRVHQIAEEHGLRHDSSGEGKRRFITVSKRAPRPRAALGPPAGTGGPAPLQPVPPTPAQTEQPPREQRGPDQPDLRTLHLERLQRVRSAQGQPASKEQQASGQQKLPEKKKKKAKGHPATDLPTEEDFEALVSAAVKADNTCGFAKCTAGVTTLGQFCQLCSRRYCLSHHLPEIHGCGERARAHARQRISREGVLYAGSGTKNGSLDPAKRAQLQRRLDKKLSELSNQRTSRRKERGT
B5: GNL3 (protein, UniProt Q9BVP2 1-549)
chain: MKRPKLKKASKRMTCHKRYKIQKKVREHHRKLRKEAKKRGHKKPRKDPGVPNSAPFKEALLREAELRKQRLEELKQQQKLDRQKELEKKRKLETNPDIKPSNVEPMEKEFGLCKTENKAKSGKQNSKKLYCQELKKVIEASDVVLEVLDARDPLGCRCPQVEEAIVQSGQKKLVLILNKSDLVPKENLESWLNYLKKELPTVVFRASTKPKDKGKITKRVKAKKNAAPFRSEVCFGKEGLWKLLGGFQETCSKAIRVGVIGFPNVGKSSIINSLKQEQMCNVGVSMGLTRSMQVVPLDKQITIIDSPSFIVSPLNSSSALALRSPASIEVVKPMEAASAILSQADARQVVLKYTVPGYRNSLEFFTVLAQRRGMHQKGGIPNVEGAAKLLWSEWTGASLAYYCHPPTSWTPPPYFNESIVVDMKSGFNLEELEKNNAQSIRAIKGPHLANSILFQSSGLTNGIIEEKDIHEELPKRKERKQEEREDDKDSDQETVDEEVDENSSGMFAAEETGEALSEETTAGEQSTRSFILDKIIEEDDAYDFSTDYV

Biological target: T1, TAR-RNA binding protein 2 (human)
Experiment: affinity purification with mass spectrometry; lysates of HeLa cells overexpressing Flag-TRBP immunoprecipitated with monoclonal anti-Flag agarose, eluted with 3X Flag polypeptides, SDS gel, fifteen Coomassie bands excised and analysed by LC-MS/MS; identifications of the mock-transfected sample subtracted

| Binder | binding |
| --- | --- |
| B1 | binds |
| B2 | binds |
| B3 | binds |
| B4 | binds |
| B5 | binds |
